In paper PMC5309860 (2017):
No constants are given. Whether binding was seen depends on the method and setting. For some of these results: Binding seen in cells or lysates may run through a third protein. Some entries that bind do so weakly or less than the wild type. For some of these results: Sequences can lack the tags named with a protein.

By UniProt entry, the sequences of proteins in these tests, tags left out. Where a name states a change or a piece, a line headed by the entry shows the natural chain unless it says otherwise.
UniProt P49407: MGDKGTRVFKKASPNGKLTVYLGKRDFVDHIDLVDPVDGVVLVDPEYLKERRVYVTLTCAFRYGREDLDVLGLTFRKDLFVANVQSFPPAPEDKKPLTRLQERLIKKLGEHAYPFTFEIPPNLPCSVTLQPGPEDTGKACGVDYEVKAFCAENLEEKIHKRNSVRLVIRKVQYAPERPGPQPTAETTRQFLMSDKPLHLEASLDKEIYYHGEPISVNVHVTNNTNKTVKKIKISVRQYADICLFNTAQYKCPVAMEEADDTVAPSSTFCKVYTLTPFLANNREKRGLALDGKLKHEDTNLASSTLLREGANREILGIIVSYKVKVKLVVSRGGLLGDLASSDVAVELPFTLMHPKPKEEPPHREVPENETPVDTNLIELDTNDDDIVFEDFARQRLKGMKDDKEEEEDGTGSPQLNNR
UniProt P25095: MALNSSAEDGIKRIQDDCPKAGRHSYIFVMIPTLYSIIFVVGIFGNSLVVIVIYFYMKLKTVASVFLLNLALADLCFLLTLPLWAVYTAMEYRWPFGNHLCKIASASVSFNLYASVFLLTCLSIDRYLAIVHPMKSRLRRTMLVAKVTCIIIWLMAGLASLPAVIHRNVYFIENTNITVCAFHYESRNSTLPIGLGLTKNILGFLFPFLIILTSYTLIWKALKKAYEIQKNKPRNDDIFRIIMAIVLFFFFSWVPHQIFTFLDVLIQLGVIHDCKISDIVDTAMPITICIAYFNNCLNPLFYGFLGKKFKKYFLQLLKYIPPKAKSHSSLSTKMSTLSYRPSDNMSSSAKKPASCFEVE
UniProt P32121: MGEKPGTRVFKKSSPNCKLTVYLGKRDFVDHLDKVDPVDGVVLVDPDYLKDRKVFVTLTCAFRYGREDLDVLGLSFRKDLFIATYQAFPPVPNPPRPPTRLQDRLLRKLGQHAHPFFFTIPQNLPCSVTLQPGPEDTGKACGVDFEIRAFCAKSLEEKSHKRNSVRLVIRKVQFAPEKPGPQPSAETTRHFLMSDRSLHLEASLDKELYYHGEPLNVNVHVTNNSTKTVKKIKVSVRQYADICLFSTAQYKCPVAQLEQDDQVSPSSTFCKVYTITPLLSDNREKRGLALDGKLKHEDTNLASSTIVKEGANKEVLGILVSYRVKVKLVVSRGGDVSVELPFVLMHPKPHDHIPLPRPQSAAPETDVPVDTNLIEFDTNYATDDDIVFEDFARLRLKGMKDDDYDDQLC

Columns and labels:
[1] = target: T1, TRPC3-GFP (wild type) (UniProt Q13507); assay: co-IP; HEK293 cells co-transfected with Flag-AT1R-cherry, TRPC3-GFP (WT/truncations) and HA-β-arrestin-1 (WT/truncations/mutants); starved 12 h, stimulated 1 min with AngII (100 nM), TRV120055 (30 nM) or TRV120027 (100 nM); lysates precipitated with antibody-conjugated beads overnight at 4 °C, western …
T1 sequence: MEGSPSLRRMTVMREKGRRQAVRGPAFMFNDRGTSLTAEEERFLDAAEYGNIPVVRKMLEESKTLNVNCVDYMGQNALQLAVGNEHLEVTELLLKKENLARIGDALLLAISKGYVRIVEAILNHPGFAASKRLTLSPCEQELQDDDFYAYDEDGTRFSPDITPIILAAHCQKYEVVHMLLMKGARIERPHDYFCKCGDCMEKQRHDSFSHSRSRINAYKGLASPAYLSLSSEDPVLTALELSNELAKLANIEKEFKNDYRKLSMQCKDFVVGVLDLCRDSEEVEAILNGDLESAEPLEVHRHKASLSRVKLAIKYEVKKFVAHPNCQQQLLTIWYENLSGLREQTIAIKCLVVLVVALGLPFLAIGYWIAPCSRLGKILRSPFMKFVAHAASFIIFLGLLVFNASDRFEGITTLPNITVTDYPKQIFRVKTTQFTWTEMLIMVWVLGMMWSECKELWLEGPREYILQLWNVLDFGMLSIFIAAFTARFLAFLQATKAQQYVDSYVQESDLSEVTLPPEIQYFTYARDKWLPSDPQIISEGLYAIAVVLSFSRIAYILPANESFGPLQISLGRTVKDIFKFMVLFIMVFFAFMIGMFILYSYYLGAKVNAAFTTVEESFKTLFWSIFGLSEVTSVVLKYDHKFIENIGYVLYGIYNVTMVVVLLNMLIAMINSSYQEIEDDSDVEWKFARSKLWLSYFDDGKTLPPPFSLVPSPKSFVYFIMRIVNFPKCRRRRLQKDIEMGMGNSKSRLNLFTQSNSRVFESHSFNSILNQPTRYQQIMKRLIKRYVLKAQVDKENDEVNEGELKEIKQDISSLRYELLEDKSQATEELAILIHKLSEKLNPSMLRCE

[2] = target: T2, TRPC3-YFP (UniProt Q13507); assay: FRET or BRET; intermolecular BRET in HEK293 cells with Flag-AT1R, Luc-β-arrestin-1 or Luc-β-arrestin-2 and TRPC3-YFP, TRPV1-YFP or TRPC6-YFP; AngII (100 nM) or TRV120027 (100 nM) 1 min at 37 °C; coelenterazine h 5 μM
T2 sequence: T1 sequence

[3] = target: HA-β-arrestin-1 (wild type) (UniProt P49407); assay: co-IP; HEK293 cells co-transfected with Flag-AT1R-cherry, TRPC3-GFP (WT/truncations) and HA-β-arrestin-1 (WT/truncations/mutants); starved 12 h, stimulated 1 min with AngII (100 nM), TRV120055 (30 nM) or TRV120027 (100 nM); lysates precipitated with antibody-conjugated beads overnight at 4 °C, western …
[4] = target: T3, GST-PLCγ-SH3 (human) (UniProt P19174); assay: pull-down; purified β-arrestin-1 WT or poly-proline mutants pre-mixed with equimolar GRK6-phospho-β2AR peptide (or not), then GST-PLCγ-SH3 (10 μM each in the methods, 5 μM in the legend); 20 mM Tris-HCl pH 8.0, 150 mM NaCl, 2 mM EDTA, 1 mM DTT; GST-agarose, western blot; both purified
T3 sequence: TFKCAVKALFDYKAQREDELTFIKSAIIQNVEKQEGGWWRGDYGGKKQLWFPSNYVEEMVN

[5] = target: HA-β-arrestin-1 (wild type) (UniProt P49407); assay: co-IP; sequential: HEK293 cells with Flag-AT1R-cherry, HA-β-arrestin-1 and TRPC3-GFP, TRV120027 (100 nM) or vehicle 1 min; plasma membrane fractions; anti-Flag M2 agarose, elution with 3*Flag peptide, then anti-HA or anti-GFP beads; western blot
[6] = target: Flag-AT1R-cherry (UniProt P25095); assay: as above
[7] = target: Flag-AT1R-cherry (UniProt P25095); assay: co-IP; HEK293 cells co-transfected with Flag-AT1R-cherry, TRPC3-GFP (WT/truncations) and HA-β-arrestin-1 (WT/truncations/mutants); starved 12 h, stimulated 1 min with AngII (100 nM), TRV120055 (30 nM) or TRV120027 (100 nM); lysates precipitated with antibody-conjugated beads overnight at 4 °C, western …
[8] = target: T1, TRPC3-GFP (wild type); assay: co-IP; sequential: HEK293 cells with Flag-AT1R-cherry, HA-β-arrestin-1 and TRPC3-GFP, TRV120027 (100 nM) or vehicle 1 min; plasma membrane fractions; anti-Flag M2 agarose, elution with 3*Flag peptide, then anti-HA or anti-GFP beads; western blot
[9] = target: HA-β-arrestin-1 P180A (UniProt P49407); assay: co-IP; HEK293 cells co-transfected with Flag-AT1R-cherry, TRPC3-GFP (WT/truncations) and HA-β-arrestin-1 (WT/truncations/mutants); starved 12 h, stimulated 1 min with AngII (100 nM), TRV120055 (30 nM) or TRV120027 (100 nM); lysates precipitated with antibody-conjugated beads overnight at 4 °C, western …
[10] = target: HA-β-arrestin-1 P121A (UniProt P49407); assay: as above

For “HA-β-arrestin-1 1–367 (from UniProt P49407 1-367) (domain or fragment)”, the binding [1] was “binds”.

For “HA-βarr2N-βarr1C (from UniProt P32121 1-321; P49407 320-418)”, the binding [1] was “binds”.

In the case of “Luc-β-arrestin-1 (from UniProt P49407 1-418)”, the binding [2] is reported as “binds”.

“Flag-AT1R-cherry (from UniProt P25095 1-359) (receptor)” was tested, and the binding [3] was “binds” and the binding [1] was “binds”.

“His-β-arrestin-1-WT (from UniProt P49407 1-418)” was tested, and the binding [4] was “binds”.

B1: TRPC3-GFP (wild type) (protein, UniProt Q13507-3 1-848)
chain: T1 sequence
For B1, the binding [5] was “binds”, the binding [6] was “binds” and the binding [3] was “binds”. For the same molecule, the binding [7] was “binds”.

B2: phosphoinositide-specific phospholipase C (PLCγ1) (enzyme, UniProt P19174 1-1290)
chain: MAGAASPCANGCGPGAPSDAEVLHLCRSLEVGTVMTLFYSKKSQRPERKTFQVKLETRQITWSRGADKIEGAIDIREIKEIRPGKTSRDFDRYQEDPAFRPDQSHCFVILYGMEFRLKTLSLQATSEDEVNMWIKGLTWLMEDTLQAPTPLQIERWLRKQFYSVDRNREDRISAKDLKNMLSQVNYRVPNMRFLRERLTDLEQRSGDITYGQFAQLYRSLMYSAQKTMDLPFLEASTLRAGERPELCRVSLPEFQQFLLDYQGELWAVDRLQVQEFMLSFLRDPLREIEEPYFFLDEFVTFLFSKENSVWNSQLDAVCPDTMNNPLSHYWISSSHNTYLTGDQFSSESSLEAYARCLRMGCRCIELDCWDGPDGMPVIYHGHTLTTKIKFSDVLHTIKEHAFVASEYPVILSIEDHCSIAQQRNMAQYFKKVLGDTLLTKPVEISADGLPSPNQLKRKILIKHKKLAEGSAYEEVPTSMMYSENDISNSIKNGILYLEDPVNHEWYPHYFVLTSSKIYYSEETSSDQGNEDEEEPKEVSSSTELHSNEKWFHGKLGAGRDGRHIAERLLTEYCIETGAPDGSFLVRESETFVGDYTLSFWRNGKVQHCRIHSRQDAGTPKFFLTDNLVFDSLYDLITHYQQVPLRCNEFEMRLSEPVPQTNAHESKEWYHASLTRAQAEHMLMRVPRDGAFLVRKRNEPNSYAISFRAEGKIKHCRVQQEGQTVMLGNSEFDSLVDLISYYEKHPLYRKMKLRYPINEEALEKIGTAEPDYGALYEGRNPGFYVEANPMPTFKCAVKALFDYKAQREDELTFIKSAIIQNVEKQEGGWWRGDYGGKKQLWFPSNYVEEMVNPVALEPEREHLDENSPLGDLLRGVLDVPACQIAIRPEGKNNRLFVFSISMASVAHWSLDVAADSQEELQDWVKKIREVAQTADARLTEGKIMERRKKIALELSELVVYCRPVPFDEEKIGTERACYRDMSSFPETKAEKYVNKAKGKKFLQYNRLQLSRIYPKGQRLDSSNYDPLPMWICGSQLVALNFQTPDKPMQMNQALFMTGRHCGYVLQPSTMRDEAFDPFDKSSLRGLEPCAISIEVLGARHLPKNGRGIVCPFVEIEVAGAEYDSTKQKTEFVVDNGLNPVWPAKPFHFQISNPEFAFLRFVVYEEDMFSDQNFLAQATFPVKGLKTGYRAVPLKNNYSEDLELASLLIKIDIFPAKENGDLSPFSGTSLRERGSDASGQLFHGRAREGSFESRYQQPFEDFRISQEHLADHFDSRERRAPRRTRVNGDNRL
B2 was tested, and the binding [5] was “binds”, the binding [8] was “binds” and the binding [6] was “binds”. For the same molecule, the binding [3] was “binds”, the binding [9] was “binds” and the binding [10] was “binds”.
